Laboratory results from publication PMC5341093.
These are yes or no findings as the source states them, for the method shown. For some assays here: In cells and extracts the contact can be indirect. Some results given as binding are weak or reduced against the parent protein; the word gives no strength.

By UniProt entry, the sequences of proteins in these tests, tags left out.
UniProt Q01650: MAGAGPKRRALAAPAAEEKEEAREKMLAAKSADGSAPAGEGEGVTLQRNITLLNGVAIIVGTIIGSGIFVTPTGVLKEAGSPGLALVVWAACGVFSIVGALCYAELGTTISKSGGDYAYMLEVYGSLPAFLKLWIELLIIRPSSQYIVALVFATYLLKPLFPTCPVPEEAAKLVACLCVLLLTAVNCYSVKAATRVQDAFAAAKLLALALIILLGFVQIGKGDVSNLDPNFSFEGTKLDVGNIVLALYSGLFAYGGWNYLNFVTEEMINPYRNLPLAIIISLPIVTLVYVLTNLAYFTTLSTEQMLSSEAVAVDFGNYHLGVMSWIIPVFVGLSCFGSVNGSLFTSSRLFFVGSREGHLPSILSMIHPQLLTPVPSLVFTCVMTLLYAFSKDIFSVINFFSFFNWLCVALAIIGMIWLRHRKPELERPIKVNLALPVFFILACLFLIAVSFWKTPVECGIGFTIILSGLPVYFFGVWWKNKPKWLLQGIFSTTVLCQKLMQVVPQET

Tests used:
[1] = target: L-Type Amino Acid Transporter 1 (LAT1, SLC7A5), LAT1-V5-His6 (human) (UniProt Q01650); experiment: co-IP; LAT1-V5-His6 precipitated on V5 affinity gel from DDM-solubilised membranes of HEK293S GnTI- LAT1 cells (1.5% DDM, 20 mM Tris-Cl, 300 mM NaCl, 10% glycerol, pH 8, with CHS), eluted with V5 peptide, SEC on Superdex 200; peaks immunoblotted for CD98 and His6 in non-reducing conditions
[2] = target: L-Type Amino Acid Transporter 1 (LAT1, SLC7A5), LAT1-V5-His6 (human) (UniProt Q01650); experiment: SEC; co-purified LAT1-CD98 (peak 3, with CHS) in SEC buffer (DDM, 100 mM Tris-Cl, 300 mM NaCl, 10% glycerol, pH 8, CHS) run on analytical HPLC-SEC (BIO-SEC5) on day 1, 3 and 7 of storage at 4 °C; both purified

binding [1]: binds | binding [2]: binds
Substance: CD98 (4F2hc, SLC3A2) (from UniProt P08195 1-529)
